Measured values taken from the supplement of paper PMC8728848.
Some of the results follow.

Key:
Test in all cases: glycan array binding signal (z-score within array); higher = stronger binding
Conditions in all cases: glycan notation: IUPAC condensed, linker removed
[1] = target: GlcNAc(b1-3)Gal(b1-4)GlcNAc(b1-3)Gal(b1-4)GlcNAc(b1-3)GalNAc
Outline: (§1)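 The binding signal is a Z-score computed within each array. Data were drawn from 3228 arrays in the Consortium for Functional Glycomics database, restricted to those with a known protein sequence. Scores were averaged over arrays of the same protein sequence at different concentrations or buffers, and over linkers, and negative values can be taken as non-binding.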

[2] = target: GlcNAc(b1-3)Gal(b1-4)GlcNAc(b1-3)GalNAc
Outline: as §1

[3] = target: GlcNAc(b1-3)Gal(b1-4)GlcNAc(b1-3)[GlcNAc(b1-3)Gal(b1-4)GlcNAc(b1-3)]GalNAc
Outline: as §1

[4] = target: GlcNAc(b1-3)Gal(b1-4)GlcNAc(b1-6)[Gal(b1-3)]GalNAc
Outline: as §1

[5] = target: GlcNAc(b1-3)Gal(b1-4)GlcNAc(b1-6)[GlcNAc(b1-3)Gal(b1-3)]GalNAc
Outline: as §1

[6] = target: GlcNAc(b1-3)Gal(b1-4)GlcNAc(b1-6)[GlcNAc(b1-3)]Gal(b1-4)GlcNAc
Outline: as §1

[7] = target: GlcNAc(b1-3)GalNAc
Outline: as §1

[8] = target: GlcNAc(b1-3)Man
Outline: as §1

[9] = target: GlcNAc(b1-3)[GlcNAc(b1-4)][GlcNAc(b1-6)]GlcNAc
Outline: as §1

[10] = target: GlcNAc(b1-3)[GlcNAc(b1-6)]Gal(b1-4)GlcNAc
Outline: as §1

[11] = target: GlcNAc(b1-3)[GlcNAc(b1-6)]GalNAc
Outline: as §1

[12] = target: GlcNAc(b1-4)Gal(b1-4)GlcNAc
Outline: as §1

[13] = target: GlcNAc(b1-4)GlcNAc
Outline: as §1

[14] = target: GlcNAc(b1-4)GlcNAc(b1-4)GlcNAc
Outline: as §1

[15] = target: GlcNAc(b1-4)GlcNAc(b1-4)GlcNAc(b1-4)GlcNAc(b1-4)GlcNAc
Outline: as §1

[16] = target: GlcNAc(b1-4)GlcNAc(b1-4)GlcNAc(b1-4)GlcNAc(b1-4)GlcNAc(b1-4)GlcNAc
Outline: as §1

[17] = target: GlcNAc(b1-4)[GlcNAc(b1-6)]GalNAc
Outline: as §1

[18] = target: GlcNAc(b1-6)Gal(b1-4)GlcNAc
Outline: as §1

[19] = target: GlcNAc(b1-6)GalNAc
Outline: as §1

[20] = target: GlcNAc6S(b1-3)Gal(b1-4)GlcNAc
Outline: as §1

[21] = target: Kdn(a2-3)Gal(b1-3)GalNAc
Outline: as §1

[22] = target: Kdn(a2-3)Gal(b1-3)GlcNAc
Outline: as §1

[23] = target: Kdn(a2-3)Gal(b1-4)Glc
Outline: as §1

[24] = target: Kdn(a2-3)Gal(b1-4)GlcNAc
Outline: as §1

[25] = target: Kdn(a2-3)Gal(b1-4)[Fuc(a1-3)]GlcNAc
Outline: as §1

[26] = target: Kdn(a2-6)Gal(b1-4)GlcNAc
Outline: as §1

[27] = target: Man(a1-2)Man(a1-2)Man(a1-3)Man
Outline: as §1

[28] = target: Man(a1-2)Man(a1-2)Man(a1-6)[Man(a1-3)]Man
Outline: as §1

[29] = target: Man(a1-2)Man(a1-3)Man
Outline: as §1

[30] = target: Man(a1-2)Man(a1-3)[Man(a1-2)Man(a1-6)]Man
Outline: as §1

[31] = target: Man(a1-2)Man(a1-3)[Man(a1-2)Man(a1-6)]Man(a1-6)[Man(a1-2)Man(a1-2)Man(a1-3)]Man
Outline: as §1

[32] = target: Man(a1-2)Man(a1-3)[Man(a1-2)Man(a1-6)]Man(a1-6)[Man(a1-2)Man(a1-2)Man(a1-3)]Man(b1-4)GlcNAc(b1-4)GlcNAc
Outline: as §1

[33] = target: Man(a1-2)Man(a1-3)[Man(a1-6)]Man(a1-6)[Man(a1-2)Man(a1-3)]Man(b1-4)GlcNAc(b1-4)GlcNAc
Outline: as §1

[34] = target: Man(a1-2)Man(a1-6)[Man(a1-3)]Man(a1-6)[Man(a1-2)Man(a1-2)Man(a1-3)]Man
Outline: as §1

[35] = target: Man(a1-2)Man(a1-6)[Man(a1-3)]Man(a1-6)[Man(a1-2)Man(a1-2)Man(a1-3)]Man(b1-4)GlcNAc(b1-4)GlcNAc
Outline: as §1

[36] = target: Man(a1-3)[Man(a1-6)]Man
Outline: as §1

[37] = target: Man(a1-3)[Man(a1-6)]Man(a1-6)[Man(a1-2)Man(a1-3)]Man(b1-4)GlcNAc(b1-4)GlcNAc
Outline: as §1

B1: Thrombomodulin Lectin (Mus musculus) (protein)
chain: LSALAKLQPTGSQCVEHECFALFQGPATFLDASQACQRLQGHLMTVRSSVAADVISLLLSQSSMDLGPWIGLQLPQGCDDPVHLGPLRGFQWVTGDNHTSYSRWARPNDQTAPLCGPLCVTVSTATEAAPGEPAWEEKPCETETQGFLCEFYFTASCRVDPIPVREDTKEEEGAGEPPVSPTPGSPTGPPSARPVLDEPRVPITQNPCPPLKECPPCAAPDLEGGPSVFIFPPKIKDVLMISLSPMVTCVVVDVSEDDPDVQISWFVNNVEVHTAQTQTHREDYNSTLRVVSALPIQHQDWMSGKAFACAVNNRALPSPIEKTISKPRGPVRAPQVYVLPPPAEEMTKKEFSLTCMITGFLPAEIAVDWTSNGRTEQNYKNTATVLDSDGSYFMYSKLRVQKSTWERGSLFACSVVHEGLHNHLTTKTISRSLGK
- glycan array binding signal (z-score) [1]: -1.15
- glycan array binding signal (z-score) [2]: -0.277
- glycan array binding signal (z-score) [3]: -0.321
- glycan array binding signal (z-score) [4]: -0.352
- glycan array binding signal (z-score) [5]: -0.747
- glycan array binding signal (z-score) [6]: -1.69
- glycan array binding signal (z-score) [7]: -0.097
- glycan array binding signal (z-score) [8]: 0.801
- glycan array binding signal (z-score) [9]: -0.082
- glycan array binding signal (z-score) [10]: -0.514
- glycan array binding signal (z-score) [11]: 0.102
- glycan array binding signal (z-score) [12]: 0.143
- glycan array binding signal (z-score) [13]: 0.431
- glycan array binding signal (z-score) [14]: 0.52
- glycan array binding signal (z-score) [15]: -1.3
- glycan array binding signal (z-score) [16]: 1.17
- glycan array binding signal (z-score) [17]: 1.02
- glycan array binding signal (z-score) [18]: -1.01
- glycan array binding signal (z-score) [19]: 0.148
- glycan array binding signal (z-score) [20]: 0.319
- glycan array binding signal (z-score) [21]: 1.18
- glycan array binding signal (z-score) [22]: -0.266
- glycan array binding signal (z-score) [23]: -0.284
- glycan array binding signal (z-score) [24]: 1.38
- glycan array binding signal (z-score) [25]: 1.5
- glycan array binding signal (z-score) [26]: -1.59
- glycan array binding signal (z-score) [27]: -0.544
- glycan array binding signal (z-score) [28]: 0.378
- glycan array binding signal (z-score) [29]: -0.807
- glycan array binding signal (z-score) [30]: -0.79
- glycan array binding signal (z-score) [31]: -1.07
- glycan array binding signal (z-score) [32]: 0.651
- glycan array binding signal (z-score) [33]: -0.304
- glycan array binding signal (z-score) [34]: 0.767
- glycan array binding signal (z-score) [35]: 0.137
- glycan array binding signal (z-score) [36]: 1.85
- glycan array binding signal (z-score) [37]: -0.589
